Measured values as given in the supplement of paper PMC8728848.
This is one part of the list.

Experiments:
Test in all cases: glycan array binding signal (z-score within array); higher = stronger binding
Conditions in all cases: glycan notation: IUPAC condensed, linker removed
[1] = target: Neu5Ac(a2-6)GlcNAc(b1-4)GlcNAc(b1-4)GlcNAc
Outline: (§1)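 Columns mapping to the same glycan were averaged after glycan names were converted to IUPAC-condensed notation. The data come from 3228 arrays in the Consortium for Functional Glycomics database, limited to those with an available protein sequence. Binding is reported as a within-array Z-score averaged across arrays of one protein sequence and across linkers.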

Neu5Ac(a2-8)Neu5Ac = target: Neu5Ac(a2-8)Neu5Ac
Outline: as §1

[2] = target: Neu5Ac(a2-8)Neu5Ac(a2-3)Gal(b1-3)GalNAc(b1-4)[Neu5Ac(a2-3)]Gal(b1-4)Glc
Outline: as §1

[3] = target: Neu5Ac(a2-8)Neu5Ac(a2-3)Gal(b1-3)GalNAc(b1-4)[Neu5Ac(a2-8)Neu5Ac(a2-3)]Gal(b1-4)Glc
Outline: as §1

[4] = target: Neu5Ac(a2-8)Neu5Ac(a2-3)Gal(b1-4)Glc
Outline: as §1

[5] = target: Neu5Ac(a2-8)Neu5Ac(a2-3)Gal(b1-4)GlcNAc
Outline: as §1

[6] = target: Neu5Ac(a2-8)Neu5Ac(a2-3)[Gal(b1-3)GalNAc(b1-4)]Gal(b1-4)Glc
Outline: as §1

[7] = target: Neu5Ac(a2-8)Neu5Ac(a2-3)[GalNAc(b1-4)]Gal(b1-4)Glc
Outline: as §1

[8] = target: Neu5Ac(a2-8)Neu5Ac(a2-8)Neu5Ac
Outline: as §1

[9] = target: Neu5Ac(a2-8)Neu5Ac(a2-8)Neu5Ac(a2-3)Gal(b1-4)Glc
Outline: as §1

[10] = target: Neu5Ac(a2-8)Neu5Ac(a2-8)Neu5Ac(a2-3)[Gal(b1-3)GalNAc(b1-4)]Gal(b1-4)Glc
Outline: as §1

[11] = target: Neu5Ac(a2-8)Neu5Ac(a2-8)Neu5Ac(a2-3)[GalNAc(b1-4)]Gal(b1-4)Glc
Outline: as §1

[12] = target: Neu5Ac(a2-8)Neu5Ac(a2-8)Neu5Ac(a2-8)Neu5Ac(a2-3)[GalNAc(b1-4)]Gal(b1-4)Glc
Outline: as §1

[13] = target: Neu5Ac(a2-8)Neu5Gc(a2-3)Gal(b1-4)GlcNAc
Outline: as §1

[14] = target: Neu5Ac(b2-6)Gal(b1-4)GlcNAc
Outline: as §1

Neu5Ac(b2-6)GalNAc = target: Neu5Ac(b2-6)GalNAc
Outline: as §1

[15] = target: Neu5Ac9Ac(a2-3)Gal(b1-3)GlcNAc
Outline: as §1

[16] = target: Neu5Ac9Ac(a2-3)Gal(b1-4)GlcNAc
Outline: as §1

[17] = target: Neu5Ac9Ac(a2-6)Gal(b1-4)GlcNAc
Outline: as §1

[18] = target: Neu5Gc(a2-3)Gal(b1-3)GlcNAc
Outline: as §1

[19] = target: Neu5Gc(a2-3)Gal(b1-3)[Fuc(a1-4)]GlcNAc
Outline: as §1

Neu5Gc(a2-3)Gal(b1-4)Glc = target: Neu5Gc(a2-3)Gal(b1-4)Glc
Outline: as §1

[20] = target: Neu5Gc(a2-3)Gal(b1-4)GlcNAc
Outline: as §1

[21] = target: Neu5Gc(a2-3)Gal(b1-4)GlcNAc(b1-3)Gal(b1-4)GlcNAc(b1-2)Man(a1-3)[Neu5Gc(a2-3)Gal(b1-4)GlcNAc(b1-3)Gal(b1-4)GlcNAc(b1-2)Man(a1-6)]Man(b1-4)GlcNAc(b1-4)GlcNAc
Outline: as §1

[22] = target: Neu5Gc(a2-3)Gal(b1-4)[Fuc(a1-3)]GlcNAc
Outline: as §1

[23] = target: Neu5Gc(a2-6)Gal(b1-4)GlcNAc
Outline: as §1

Neu5Gc(a2-6)GalNAc = target: Neu5Gc(a2-6)GalNAc
Outline: as §1

[24] = target: Neu5Gc(a2-8)Neu5Ac(a2-3)Gal(b1-4)GlcNAc
Outline: as §1

[25] = target: Neu5Gc(a2-8)Neu5Gc(a2-3)Gal(b1-4)GlcNAc
Outline: as §1

[26] = target: Neu5Gc(a2-8)Neu5Gc(a2-3)Gal(b1-4)GlcNAc(b1-3)Gal(b1-4)GlcNAc
Outline: as §1

[27] = target: Neu5Gc(a2-8)Neu5Gc(a2-6)Gal(b1-4)GlcNAc
Outline: as §1

[28] = target: Neu5Gc(b2-6)Gal(b1-4)GlcNAc
Outline: as §1

B1: SAOUHSC 02783 (Staphylococcus aureus), Q5HD69 (protein)
chain: MIHSKKLTLGICLVLLIILIVGYVIMTKTNGRNAQIKDTFNQTLKLYPTKNLDDFYDKEGFRDQEFKKGDKGTWIVNSEMVIEPKGKDMETRGMVLYINRNTRTTKGYYFISEMTDDSNGRPKDDEKRYPVKMEHNKIIPTKPLPNDKLKKEIENFKFFVQYGNFKDINDYKDGDISYNPNVPSYSAKYQLNNDDYNVQQLRKRYDIPTKQAPKLLLKGDGDLKGSSVGSRSLEFTFVENKEENIYFTDSVQYTPSEDTRYESN
With B1 the “glycan array binding signal (z-score)” value [1] was 1.87, the “glycan array binding signal (z-score)” value (Neu5Ac(a2-8)Neu5Ac) was -0.229 and the “glycan array binding signal (z-score)” value [2] was -1.24. The “glycan array binding signal (z-score)” value [3] was -0.625, the “glycan array binding signal (z-score)” value [4] was -0.728 and the “glycan array binding signal (z-score)” value [5] was 0.416. For the same binder, the “glycan array binding signal (z-score)” value [6] was 0.98, the “glycan array binding signal (z-score)” value [7] was -0.759 and the “glycan array binding signal (z-score)” value [8] was 1.49. For the same binder, the “glycan array binding signal (z-score)” value [9] was 0.363, the “glycan array binding signal (z-score)” value [10] was -1.75 and the “glycan array binding signal (z-score)” value [11] was -0.985. For the same binder, the “glycan array binding signal (z-score)” value [12] was -0.411, the “glycan array binding signal (z-score)” value [13] was -1.02 and the “glycan array binding signal (z-score)” value [14] was -1.62. For the same binder, the “glycan array binding signal (z-score)” value (Neu5Ac(b2-6)GalNAc) was 0.273, the “glycan array binding signal (z-score)” value [15] was 1.1 and the “glycan array binding signal (z-score)” value [16] was -0.671. For the same binder, the “glycan array binding signal (z-score)” value [17] was 1.65, the “glycan array binding signal (z-score)” value [18] was 1.47 and the “glycan array binding signal (z-score)” value [19] was -0.236. For the same binder, the “glycan array binding signal (z-score)” value (Neu5Gc(a2-3)Gal(b1-4)Glc) was -1.37, the “glycan array binding signal (z-score)” value [20] was 3.09 and the “glycan array binding signal (z-score)” value [21] was 1.23. The “glycan array binding signal (z-score)” value [22] was 0.846, the “glycan array binding signal (z-score)” value [23] was -1.49 and the “glycan array binding signal (z-score)” value (Neu5Gc(a2-6)GalNAc) was -0.388. For the same binder, the “glycan array binding signal (z-score)” value [24] was -0.724, the “glycan array binding signal (z-score)” value [25] was -1.18 and the “glycan array binding signal (z-score)” value [26] was 0.421. For the same binder, the “glycan array binding signal (z-score)” value [27] was -0.44 and the “glycan array binding signal (z-score)” value [28] was -0.76.
